Assays:
Type in all cases: cell-based
[1] = tested on: PC-3 cells; assay: Colocalisation with Lysotracker Blue DND-22, scatterplot analysis; settings: PC-3, 18 h, 37 °C, 100 µM + 100 nM Lysotracker Blue DND-22
[2] = tested on: PC-3 cells; assay: Two-photon fluorescence lifetime imaging (MP FLIM) of living PC-3 cells; settings: PC-3, 60 min, 100 µM in 1:99 DMSO:serum-free medium, λex 810 nm
[3] = tested on: A431 cells; assay: Two-photon fluorescence lifetime imaging (MP FLIM) of living A431 cells
[4] = tested on: PC-3 cells; assay: Confocal laser-scanning microscopy, cellular uptake and localization; settings: for subcellular localization: organelle-specific staining / confocal fluorescence
[5] = Blue ROI, overlay a (blue Lysotracker channel vs green)
[6] = Blue ROI, overlay b (blue Lysotracker channel vs red; red λex 488 nm, L-6 561 nm)
[7] = Blue ROI, overlay c (green vs red channel)
[8] = Green ROI, overlay a (blue Lysotracker channel vs green)
[9] = Green ROI, overlay b (blue Lysotracker channel vs red; red λex 488 nm, L-6 561 nm)
[10] = Green ROI, overlay c (green vs red channel)
[11] = Red ROI, overlay a (blue Lysotracker channel vs green)
[12] = Red ROI, overlay b (blue Lysotracker channel vs red; red λex 488 nm, L-6 561 nm)
[13] = Red ROI, overlay c (green vs red channel)
[14] = A431, overnight 37 °C, 100 μM in 1:99 DMSO/serum-free medium, λex 810 nm

QWAVGHL [L-2, bombesin [7,13] fragment peptide made by solid-phase synthesis from L-amino acids]
Correlation coeff. c1 [1, 5]: 0.92 | Correlation coeff. c2 [1, 5]: 0.45 | Mander’s overlap [1, 5]: 0.40 | Mander’s overlap coeff. k1 [1, 5]: 0.49 | Mander’s overlap coeff. k2 [1, 5]: 0.32 | Pearson’s correlation [1, 5]: 0.34 | Correlation coeff. c1 [1, 6]: 0.82 | Correlation coeff. c2 [1, 6]: 1.00 | Mander’s overlap [1, 6]: 0.56 | Mander’s overlap coeff. k1 [1, 6]: 0.05 | Mander’s overlap coeff. k2 [1, 6]: 6.54 | Pearson’s correlation [1, 6]: 0.36 | Correlation coeff. c1 [1, 7]: 1.00 | Correlation coeff. c2 [1, 7]: 0.36 | Mander’s overlap [1, 7]: 0.35 | Mander’s overlap coeff. k1 [1, 7]: 5.06 | Mander’s overlap coeff. k2 [1, 7]: 0.02 | Pearson’s correlation [1, 7]: 0.66 | Correlation coeff. c1 [1, 8]: 0.95 | Correlation coeff. c2 [1, 8]: 0.56 | Mander’s overlap [1, 8]: 0.50 | Mander’s overlap coeff. k1 [1, 8]: 0.95 | Mander’s overlap coeff. k2 [1, 8]: 0.27 | Pearson’s correlation [1, 8]: 0.47 | Correlation coeff. c1 [1, 9]: 0.87 | Correlation coeff. c2 [1, 9]: 1.00 | Mander’s overlap [1, 9]: 0.51 | Mander’s overlap coeff. k1 [1, 9]: 0.09 | Mander’s overlap coeff. k2 [1, 9]: 2.85 | Pearson’s correlation [1, 9]: 0.55 | Correlation coeff. c1 [1, 10]: 1.00 | Correlation coeff. c2 [1, 10]: 0.35 | Mander’s overlap [1, 10]: 0.36 | Mander’s overlap coeff. k1 [1, 10]: 3.84 | Mander’s overlap coeff. k2 [1, 10]: 0.03 | Pearson’s correlation [1, 10]: 0.85 | Correlation coeff. c1 [1, 11]: 0.97 | Correlation coeff. c2 [1, 11]: 0.63 | Mander’s overlap [1, 11]: 0.55 | Mander’s overlap coeff. k1 [1, 11]: 1.09 | Mander’s overlap coeff. k2 [1, 11]: 0.28 | Pearson’s correlation [1, 11]: 0.48 | Correlation coeff. c1 [1, 12]: 0.88 | Correlation coeff. c2 [1, 12]: 1.00 | Mander’s overlap [1, 12]: 0.57 | Mander’s overlap coeff. k1 [1, 12]: 0.10 | Mander’s overlap coeff. k2 [1, 12]: 3.25 | Pearson’s correlation [1, 12]: 0.54 | Correlation coeff. c1 [1, 13]: 1.00 | Correlation coeff. c2 [1, 13]: 0.44 | Mander’s overlap [1, 13]: 0.44 | Mander’s overlap coeff. k1 [1, 13]: 5.00 | Mander’s overlap coeff. k2 [1, 13]: 0.04 | Pearson’s correlation [1, 13]: 0.83

CC(C)C[C@H](NC(=O)[C@H](Cc1c[nH]cn1)NC(=O)CNC(=O)[C@@H](NC(=O)[C@H](C)NC(=O)[C@H](Cc1c[nH]c2ccccc12)NC(=O)[C@H](CCC(N)=O)NC(=O)[C@H](Cc1ccc(I)cc1)N1C(=O)c2ccc3c4c(ccc(c24)C1=O)C(=O)N([C@@H](Cc1ccc(I)cc1)C(=O)N[C@@H](CCC(N)=O)C(=O)N[C@@H](Cc1c[nH]c2ccccc12)C(=O)N[C@@H](C)C(=O)N[C@H](C(=O)NCC(=O)N[C@@H](Cc1c[nH]cn1)C(=O)N[C@@H](CC(C)C)C(N)=O)C(C)C)C3=O)C(C)C)C(N)=O [L-4]
FLIM τ1 [2]: 2.66±0.04 ns | FLIM τ2 [2]: 0.00±0.00 ns | Correlation coeff. c1 [1, 5]: 0.94 | Correlation coeff. c2 [1, 5]: 0.98 | Mander’s overlap [1, 5]: 0.84 | Mander’s overlap coeff. k1 [1, 5]: 0.80 | Mander’s overlap coeff. k2 [1, 5]: 0.87 | Pearson’s correlation [1, 5]: 0.83 | Correlation coeff. c1 [1, 6]: 0.80 | Correlation coeff. c2 [1, 6]: 1.00 | Mander’s overlap [1, 6]: 0.38 | Mander’s overlap coeff. k1 [1, 6]: 0.15 | Mander’s overlap coeff. k2 [1, 6]: 0.95 | Pearson’s correlation [1, 6]: 0.60 | Correlation coeff. c1 [1, 7]: 0.93 | Correlation coeff. c2 [1, 7]: 1.00 | Mander’s overlap [1, 7]: 0.51 | Mander’s overlap coeff. k1 [1, 7]: 0.21 | Mander’s overlap coeff. k2 [1, 7]: 1.22 | Pearson’s correlation [1, 7]: 0.70 | Correlation coeff. c1 [1, 8]: 0.85 | Correlation coeff. c2 [1, 8]: 0.99 | Mander’s overlap [1, 8]: 0.68 | Mander’s overlap coeff. k1 [1, 8]: 0.61 | Mander’s overlap coeff. k2 [1, 8]: 0.75 | Pearson’s correlation [1, 8]: 0.70 | Correlation coeff. c1 [1, 9]: 0.77 | Correlation coeff. c2 [1, 9]: 1.00 | Mander’s overlap [1, 9]: 0.29 | Mander’s overlap coeff. k1 [1, 9]: 0.05 | Mander’s overlap coeff. k2 [1, 9]: 1.54 | Pearson’s correlation [1, 9]: 0.31 | Correlation coeff. c1 [1, 10]: 0.98 | Correlation coeff. c2 [1, 10]: 1.00 | Mander’s overlap [1, 10]: 0.73 | Mander’s overlap coeff. k1 [1, 10]: 0.15 | Mander’s overlap coeff. k2 [1, 10]: 3.50 | Pearson’s correlation [1, 10]: 0.73 | Correlation coeff. c1 [1, 11]: 0.98 | Correlation coeff. c2 [1, 11]: 1.00 | Mander’s overlap [1, 11]: 0.74 | Mander’s overlap coeff. k1 [1, 11]: 0.44 | Mander’s overlap coeff. k2 [1, 11]: 1.25 | Pearson’s correlation [1, 11]: 0.70 | Correlation coeff. c1 [1, 12]: 0.86 | Correlation coeff. c2 [1, 12]: 1.00 | Mander’s overlap [1, 12]: 0.45 | Mander’s overlap coeff. k1 [1, 12]: 0.34 | Mander’s overlap coeff. k2 [1, 12]: 0.60 | Pearson’s correlation [1, 12]: 0.40 | Correlation coeff. c1 [1, 13]: 0.96 | Correlation coeff. c2 [1, 13]: 1.00 | Mander’s overlap [1, 13]: 0.62 | Mander’s overlap coeff. k1 [1, 13]: 0.79 | Mander’s overlap coeff. k2 [1, 13]: 0.48 | Pearson’s correlation [1, 13]: 0.72 | FLIM first lifetime distribution (τ1) [3, 14]: 0.72 ± 0.05 ns | FLIM second lifetime distribution (τ2) [3, 14]: 1.89 ± 0.11 ns | subcellular localization [4]: localize more in the lysosomes of PC-3 cells than in the nucleus or cytosol

CC1=CC(C)=[N+]2C1=C(c1ccc(C(=O)NCCN3C(=O)c4ccc5c6c(ccc(c46)C3=O)C(=O)N([C@@H](CCC(N)=O)C(=O)N[C@@H](Cc3c[nH]c4ccccc34)C(=O)N[C@@H](C)C(=O)N[C@H](C(=O)NCC(=O)N[C@@H](Cc3c[nH]cn3)C(=O)N[C@@H](CC(C)C)C(N)=O)C(C)C)C5=O)cc1)c1c(C)cc(C)n1[B-]2(F)F [L-6]
Correlation coeff. c1 [1, 5]: 1.00 | Correlation coeff. c2 [1, 5]: 0.99 | Mander’s overlap [1, 5]: 0.79 | Mander’s overlap coeff. k1 [1, 5]: 0.03 | Mander’s overlap coeff. k2 [1, 5]: 24.72 | Pearson’s correlation [1, 5]: 0.51 | Correlation coeff. c1 [1, 6]: 0.97 | Correlation coeff. c2 [1, 6]: 0.99 | Mander’s overlap [1, 6]: 0.58 | Mander’s overlap coeff. k1 [1, 6]: 0.67 | Mander’s overlap coeff. k2 [1, 6]: 0.51 | Correlation coeff. c1 [1, 7]: 1.00 | Correlation coeff. c2 [1, 7]: 0.99 | Mander’s overlap [1, 7]: 0.74 | Mander’s overlap coeff. k1 [1, 7]: 0.43 | Mander’s overlap coeff. k2 [1, 7]: 1.27 | Pearson’s correlation [1, 7]: 0.35 | Correlation coeff. c1 [1, 8]: 1.00 | Correlation coeff. c2 [1, 8]: 0.99 | Mander’s overlap [1, 8]: 0.79 | Mander’s overlap coeff. k1 [1, 8]: 0.03 | Mander’s overlap coeff. k2 [1, 8]: 19.29 | Pearson’s correlation [1, 8]: 0.43 | Correlation coeff. c1 [1, 9]: 1.00 | Correlation coeff. c2 [1, 9]: 1.00 | Mander’s overlap [1, 9]: 0.79 | Mander’s overlap coeff. k1 [1, 9]: 13.63 | Mander’s overlap coeff. k2 [1, 9]: 0.05 | Pearson’s correlation [1, 9]: 0.42 | Correlation coeff. c1 [1, 10]: 1.00 | Correlation coeff. c2 [1, 10]: 0.98 | Mander’s overlap [1, 10]: 0.80 | Mander’s overlap coeff. k1 [1, 10]: 0.57 | Mander’s overlap coeff. k2 [1, 10]: 1.15 | Pearson’s correlation [1, 10]: 0.54 | Correlation coeff. c1 [1, 11]: 1.00 | Correlation coeff. c2 [1, 11]: 0.98 | Mander’s overlap [1, 11]: 0.68 | Mander’s overlap coeff. k1 [1, 11]: 0.04 | Mander’s overlap coeff. k2 [1, 11]: 11.45 | Pearson’s correlation [1, 11]: 0.24 | Correlation coeff. c1 [1, 12]: 1.00 | Correlation coeff. c2 [1, 12]: 1.00 | Mander’s overlap [1, 12]: 0.71 | Mander’s overlap coeff. k1 [1, 12]: 8.13 | Mander’s overlap coeff. k2 [1, 12]: 0.06 | Pearson’s correlation [1, 12]: 0.25 | Correlation coeff. c1 [1, 13]: 1.00 | Correlation coeff. c2 [1, 13]: 0.98 | Mander’s overlap [1, 13]: 0.83 | Mander’s overlap coeff. k1 [1, 13]: 0.56 | Mander’s overlap coeff. k2 [1, 13]: 1.23 | Pearson’s correlation [1, 13]: 0.40 | FLIM single lifetime decay distribution ([3]; A431, 50 μM in 1:99 DMSO/serum-free medium, λex 910 nm): 2.66 ± 0.04 ns | fluorescence emission in cells visible after incubation time ([4]; 50 μM in 1:99 DMSO:serum-free medium, 37 °C): visible after 20 min of incubation | subcellular localization [4]: endoplasmic reticulum (ER) localization additionally to the membrane aggregation and lysosomal uptake

Source: publication PMC12715529 (ACS Bio & Med Chem Au, 2025)
